Some of these results come from one statement about several compounds together.
How the values were obtained:
[1] = system: A2780 cells; experiment: N-acetyl-L-cysteine (NAC) treatment, cell viability by SRB; assay type: cell-based, human; settings: 1.2-1.8× IC50 (2.5× for cisplatin); for cell growth, % of the control value: without NAC, 24 h, 72 h recovery
Protocol: Then NAC and osmium complexes were removed at the same time and washed with PBS once, the cells were incubate for 72 h for recovery. The cell viability was tested by SRB test same as used for IC50 test.

[2] = system: A2780/cis, A549, HCT-116, MCF-7, PC-3 and RT-112 Cell Lines; experiment: MTT growth inhibition assay, cell line panel compared with cisplatin; assay type: cell-based, human; settings: all cell lines tested apart from RT-112 for complex 3

[(η^6-p-cym)Os(Azpy-NMe2)Cl]PF6 [Complex 12]
cell growth, % of the control value [1]: < 30%

[(η^6-p-cym)Os(Azpy-NMe2)I]PF6 [Complex 6]
greater potency than cisplatin [2]: at least 10 fold | cell growth restored after NAC pretreatment ([1]; pretreated with 5 mM NAC for 2 h): > 70% | cell growth, % of the control value [1]: < 30%
